Publication PMC7389436
These are yes or no findings as the source states them, for the method shown. In cells and extracts the contact can be indirect. Some entries that bind do so weakly or less than the wild type.

By UniProt entry, the sequences of proteins in these tests, tags left out.
UniProt D4A523: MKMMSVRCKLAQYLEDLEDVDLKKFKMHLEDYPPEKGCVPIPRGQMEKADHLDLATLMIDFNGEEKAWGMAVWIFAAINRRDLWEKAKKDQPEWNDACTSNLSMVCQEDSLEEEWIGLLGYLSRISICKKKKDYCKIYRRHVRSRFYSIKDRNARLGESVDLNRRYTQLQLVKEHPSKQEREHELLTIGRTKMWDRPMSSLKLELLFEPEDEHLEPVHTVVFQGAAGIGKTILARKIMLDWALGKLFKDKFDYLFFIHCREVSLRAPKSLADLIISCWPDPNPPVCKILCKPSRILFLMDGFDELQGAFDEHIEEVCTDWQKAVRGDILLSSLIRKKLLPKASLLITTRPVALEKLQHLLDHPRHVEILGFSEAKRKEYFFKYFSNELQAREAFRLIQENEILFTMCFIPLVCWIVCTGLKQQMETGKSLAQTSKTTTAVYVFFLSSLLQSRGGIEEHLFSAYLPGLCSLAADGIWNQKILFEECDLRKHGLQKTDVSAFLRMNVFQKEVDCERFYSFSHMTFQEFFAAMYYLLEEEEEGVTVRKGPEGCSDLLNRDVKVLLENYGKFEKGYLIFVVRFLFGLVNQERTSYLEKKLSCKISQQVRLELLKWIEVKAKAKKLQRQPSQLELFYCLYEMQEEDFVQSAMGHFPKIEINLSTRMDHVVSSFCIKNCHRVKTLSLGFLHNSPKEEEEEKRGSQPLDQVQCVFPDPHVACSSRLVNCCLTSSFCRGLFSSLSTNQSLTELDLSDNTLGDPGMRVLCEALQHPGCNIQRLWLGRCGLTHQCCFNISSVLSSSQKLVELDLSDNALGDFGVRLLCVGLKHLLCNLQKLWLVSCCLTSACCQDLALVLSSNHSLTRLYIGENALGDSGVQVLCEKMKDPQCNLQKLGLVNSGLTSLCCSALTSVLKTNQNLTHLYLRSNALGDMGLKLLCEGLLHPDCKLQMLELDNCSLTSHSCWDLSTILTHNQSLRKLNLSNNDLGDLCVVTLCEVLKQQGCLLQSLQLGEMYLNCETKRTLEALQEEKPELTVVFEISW

T1: thioredoxin interacting protein (TXNIP) (UniProt Q5M7W1)
T1 sequence: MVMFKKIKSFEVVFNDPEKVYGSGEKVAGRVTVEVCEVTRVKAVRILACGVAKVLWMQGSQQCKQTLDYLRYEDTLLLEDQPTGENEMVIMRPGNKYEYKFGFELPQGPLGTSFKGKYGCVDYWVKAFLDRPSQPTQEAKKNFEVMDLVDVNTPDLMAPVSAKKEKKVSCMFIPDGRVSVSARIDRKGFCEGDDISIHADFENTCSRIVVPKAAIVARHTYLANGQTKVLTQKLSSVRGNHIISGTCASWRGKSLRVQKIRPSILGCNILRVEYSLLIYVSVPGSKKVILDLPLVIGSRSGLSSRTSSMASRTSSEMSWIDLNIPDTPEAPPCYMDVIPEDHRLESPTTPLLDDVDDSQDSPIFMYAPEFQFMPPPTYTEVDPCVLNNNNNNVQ


What was measured:
[1] = target: T1, thioredoxin interacting protein (TXNIP); assay: co-IP; Catch and Release Reversible Immunoprecipitation System Kit; IP with antibody to TXNIP or antibody to NLRP3; rabbit/mouse IgG as negative control; sample not stated
[2] = target: NLR family pyrin domain-containing 3 (NLRP3) (UniProt D4A523); assay: as above

binding [1] | binding [2] | Molecule
binds |  | NLR family pyrin domain-containing 3 (NLRP3) (from UniProt D4A523 1-1035)
 | binds | thioredoxin interacting protein (TXNIP) (protein, UniProt Q5M7W1 1-394) MVMFKKIKSFEVVFNDPEKVYGSGEKVAGRVTVEVCEVTRVKAVRILACGVAKVLWMQGSQQCKQTLDYLRYEDTLLLEDQPTGENEMVIMRPGNKYEYKFGFELPQGPLGTSFKGKYGCVDYWVKAFLDRPSQPTQEAKKNFEVMDLVDVNTPDLMAPVSAKKEKKVSCMFIPDGRVSVSARIDRKGFCEGDDISIHADFENTCSRIVVPKAAIVARHTYLANGQTKVLTQKLSSVRGNHIISGTCASWRGKSLRVQKIRPSILGCNILRVEYSLLIYVSVPGSKKVILDLPLVIGSRSGLSSRTSSMASRTSSEMSWIDLNIPDTPEAPPCYMDVIPEDHRLESPTTPLLDDVDDSQDSPIFMYAPEFQFMPPPTYTEVDPCVLNNNNNNVQ
